Values from PubChem BioAssay AID1259308 (NCATS, 2017)
This is an unselected part of about 59,000 reagents tested. About 1,510 of them (2.6%) count as active. 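Calls use total luciferase alone and ignore viability, so some active siRNAs may act by altering cell number.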 Reagents against one gene are numbered here. Further read-outs or replicates are left out here. Reagent sequences are not shown.

- Purpose: 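Genes whose loss raises luciferase production in HEK293 cells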 (primary screen)
- Cell system: human HEK293 embryonic kidney cells stably expressing firefly luciferase (HEK-CMV-Luc2-Hygro)
- Reagents: single siRNA against human genes, 0.8 pmol siRNA per well
- Duration: 72 h
- Measured: 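Luciferase light (ONE-Glo) measured on one replicate plate set and viability (CellTiter-Glo) on the other, scaled to a negative control siRNA, with robust z-scores and luciferase per cell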
- Scale: total luciferase, z-score: higher = more reporter protein produced
- Active means: 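An siRNA counts as active if its total luciferase robust z-score exceeds 3; genes with two or more such siRNAs out of three were retested with fresh siRNAs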
- Meaning of the calls: active = raised luciferase; inactive = no rise

With knock-down of C3orf52 #1, the screen gave total luciferase, z-score -1.21; inactive. For C3orf52 #2 the deposit lists total luciferase, z-score 0.877; inactive. With knock-down of C3orf52 #3, the record shows total luciferase, z-score 0.741; inactive. With knock-down of CHST4 #1 the results were total luciferase, z-score 0.526; inactive. After knock-down of CHST4 #2, the record shows total luciferase, z-score -0.0395; inactive. After knock-down of CHST4 #3, the screen gave total luciferase, z-score 0.307; inactive.

For PRR22 #1, the entry reads total luciferase, z-score 0.674; inactive. After knock-down of PRR22 #2, the screen gave total luciferase, z-score 0.123; inactive. After knock-down of PRR22 #3, the record shows total luciferase, z-score 2.09; inactive. Against ACADL #1, the entry reads total luciferase, z-score -0.233; inactive. For ACADL #2 the deposit lists total luciferase, z-score 0.621; inactive. ACADL #3 showed total luciferase, z-score -0.15; inactive.

MED16 #1 scored total luciferase, z-score -1.43; inactive. Knock-down of MED16 #2 came out at: total luciferase, z-score 1.54; inactive. Silencing of MED16 #3 came out at: total luciferase, z-score -0.309; inactive. After knock-down of HUS1B #1 the results were total luciferase, z-score -0.334; inactive. HUS1B #2 showed total luciferase, z-score -1.58; inactive. Against HUS1B #3, the values are total luciferase, z-score 2.02; inactive.

Against PATL1 #1, the entry reads total luciferase, z-score -0.502; inactive. Silencing of PATL1 #2 came out at: total luciferase, z-score 1.31; inactive. After knock-down of PATL1 #3, the screen gave total luciferase, z-score 0.33; inactive.

2 entries from above in another layout.
MED16 #3
- total luciferase, z-score: -0.309
- Call: inactive

HUS1B #1
- total luciferase, z-score: -0.334
- Call: inactive
